# Measurements: PMC12040169 (PLOS Biology, 2025)
# Some of the results follow.
# System: T1, CTL2-GFP (C. trachomatis L2/434/Bu, GFP-expressing)
# T1 construct: L2/434/Bu, GFP-expressing
# Design: species or system HeLa; Intracellular C. trachomatis growth in HeLa cells, bulk GFP fluorescence relative to DMSO
# Settings: bulk GFP, single well; 28.5 h, 10 µM; inhibitor
row,SMILES,% of control remaining [%]
1,CC1CCN(C(=O)CCn2c(C(F)F)cc3cccnc32)CC1 [CBK284982],129.915
2,O=C(O)CCNS(=O)(=O)c1cccc(F)c1 [CBK267264],117.685
3,CCOC(=O)c1ccc(NC(=O)Cc2c(C(=O)O)nnn2-c2cccc(C(F)(F)F)c2)cc1 [CBK296932],114.477
4,COc1cc(NS(=O)(=O)c2ccccc2)c(Cl)cc1C(=O)O [CBK286564],124.167
5,Cc1ccc(S(=O)(=O)NCC(=O)O)cc1[N+](=O)[O-] [CBK034459],110.45
6,Cc1cc(C(=O)O)ccc1-c1ccc(/C=C/c2[nH]c(=O)[nH]c(=O)c2[N+](=O)[O-])o1 [CBK266998],157.399
7,CC(=O)N1CC(C(=O)Nc2nc3c(C)cc(C)cc3s2)C1 [CBK281372],128.521
8,N#Cc1ccccc1N1CCN(c2ccc(-c3ccccc3)cn2)CC1 [CBK037590],93.2922
9,CCN(C)CC(=O)N1CCC(Oc2cc(C)ccc2F)(C(=O)O)CC1 [CBK307020],130.137
10,c1ccc(-c2cn3ccnc3c(N3CCN(c4ccncc4)CC3)n2)cc1 [CBK066177],134.07
11,CC(=O)Nc1ccc2nc(Nc3nc4c(F)cccc4s3)sc2c1 [CBK287475],159.885
12,COc1ccccc1CC(c1ccccc1)C1CN(C)CCO1 (stereo not drawn) [CBK009925C],134.534
13,CCC1CCCCN1C(=O)c1ccc(-c2ccccc2)s1 (stereo not drawn) [CBK074215],109.417
14,O=C(Nc1cccc(Cl)c1)Nc1ccc(C(=O)O)c(O)c1 [CBK269518],137.389
15,O=C(Cc1ccc(Cl)c(Cl)c1)N1CCCC2(CCN(C(=O)c3ccoc3)C2)C1 (stereo not drawn) [CBK131619],123.29
16,CCCC(=O)NC(c1ccccn1)C1CCC(CNC(C)=O)CC1 (stereo not drawn) [CBK283080],106.112
17,Cc1cc(N2CCN(C(=O)CCc3ccccc3)CC2)nc(C(C)C)n1 [CBK305711],99.2255
18,COc1cccc(NC(=O)N2CCC3(CC2)NC(=O)c2cc(-c4ccoc4)ccc2O3)c1 [CBK115855],97.6145
19,O=C(Nc1ncccc1O)c1c(O)c2ccccc2n(Cc2ccccc2)c1=O [CBK291211],111.362
20,CC(C)C(=O)N1CCCC(c2cc3cccnc3[nH]2)C1 (stereo not drawn) [CBK284994],96.9107
21,COc1ccc(C(=O)N2CCC3(CCCN(C(=O)c4ccco4)C3)C2)cc1OC (stereo not drawn) [CBK131647],65.6738
22,COc1ccc(-c2ccc3c(c2)OC2(CCN(C(=O)c4cc(OC)c(C)c(OC)c4)CC2)CC3=O)cn1 [CBK169424],116.634
23,CC(NC(=O)C1CCN(CCc2ccccc2)CC1)c1ccccc1 (stereo not drawn) [CBK148612],103.873
24,CCC(C)(C)c1ccc(S(=O)(=O)N2CCCN(Cc3c[nH]c(=O)[nH]c3=O)CC2)cc1 [CBK062881],157.15
25,Cn1ccnc1CNC(=O)N1CCCC(C(=O)c2cccc(Cl)c2)C1 (stereo not drawn) [CBK307479],94.4895
26,O=C(NCCn1nc(-c2ccco2)ccc1=O)c1cccs1 [CBK283704],118.097

row,SMILES,% of control remaining [%]
1,CS(=O)(=O)c1ccc(-c2cnc(N)c(NCCCO)n2)cc1 [CBK063587],241.516
2,N#C/C(=C(/O)c1ccc(-c2ccc([N+](=O)[O-])cc2Cl)o1)c1nc(-c2ccc(F)cc2)cs1 [CBK266742],162.982
3,Cc1ccnn1CCC(=O)N1CCC(c2cc3cccnc3[nH]2)CC1 [CBK284912],112.993
4,COc1cccc(/C=N/N2C(=O)c3ccc([N+](=O)[O-])cc3NC2c2cccc(OC)c2O)c1O (stereo not drawn) [CBK074439],85.2461
5,CCCc1nnc2sc(C3CCCN(C(C)C)C3)nn12 (stereo not drawn) [CBK306781],112.433
6,CN1CCN(C(=O)c2cnc3cc(C(F)(F)F)ccc3c2O)CC1 [CBK107423],137.836
7,Cc1ccsc1CN(CCCO)Cc1cn(C)nc1C [CBK282983],118.521
8,CCn1c(SCC(=O)c2ccc(F)cc2)nnc1C(C)Oc1ccccc1 (stereo not drawn) [CBK269695],75.329
9,c1cc2c(cc1-c1nn3cnnc3s1)OCCO2 [CBK287866],126.15
10,COc1ccc(-c2cc(=O)[nH]c(=S)s2)cc1 [CBK288355],140.489
11,CC(C)(C)NC(=O)c1nn2c(c1Br)NC(c1cccs1)CC2C(F)(F)F (stereo not drawn) [CBK307175],120.699
12,Cc1ccc(CS(=O)(=O)NCCn2nc(C)c(C)c2C)cc1 [CBK281383],124.264
13,COc1ccc(S(=O)(=O)N(CC(=O)Nc2ccc3c(c2)OCCO3)c2ccc(F)cc2)cc1 [CBK268584],98.9376
14,O=C(O)c1cccc(-c2cn3ccnc3c(N3CCOCC3)n2)c1 [CBK038053],210.058
15,O=C(Cn1nc(C(=O)O)c2ccccc2c1=O)c1ccc(C2CCCCC2)cc1 [CBK297538],141.871
16,O[C@H]1CN[C@H](c2nc(-c3ccc(OC(F)(F)F)cc3)no2)C1 [CBK288836],105.075
17,COc1cc(C=C2SC(=S)N(CCCCCC(=O)O)C2=O)cc(OC)c1 [CBK297505],125.501
18,CCOc1cccc(-c2cn3ccnc3c(NCc3cc(OC)c(OC)c(OC)c3)n2)c1 [CBK066717],113.163
19,Cc1noc(C)c1CS(=O)(=O)Cc1ccc(Cl)cc1 [CBK034194],97.2555
20,COc1cc(/C=N/NC(=O)CCN2CCN(C)CC2)cc2c1OCO2 [CBK261504],98.3311
21,O=C(Cc1c[nH]c2ccccc12)N1CCC2(CCCN(C(=O)c3cccc(C(F)(F)F)c3)C2)C1 (stereo not drawn) [CBK131578],140.172
22,O=C1CCC(=O)N1CCOc1nccnc1N1CCN(CCc2ccc3ccccc3c2)CC1 [CBK084307],118.515
23,COc1ccc2c(c1)c(C(=O)N1CC(C)(C)C(C)(O)C1)c(C)n2C (stereo not drawn) [CBK306896],143.938
24,Cc1ccc(C2CCCN2C(=O)c2ccc(=O)n(CC(=O)N(C)c3ccccc3)c2)cc1C (stereo not drawn) [CBK285653],106.227
25,OCCc1ccc(Nc2cc(-c3cc4ccccc4s3)ncn2)cc1 [CBK090770],127.996
26,O=C(c1cncnc1)N1CCC2(CCN(C(=O)c3ccoc3)C2)C1 (stereo not drawn) [CBK131755],89.5964

# Ordered by molar mass (smallest number first): three of the compounds above.
row,SMILES,% of control remaining [%]
12,Cc1ccc(CS(=O)(=O)NCCn2nc(C)c(C)c2C)cc1 [CBK281383],124.264
17,COc1cc(C=C2SC(=S)N(CCCCCC(=O)O)C2=O)cc(OC)c1 [CBK297505],125.501
22,O=C1CCC(=O)N1CCOc1nccnc1N1CCN(CCc2ccc3ccccc3c2)CC1 [CBK084307],118.515

# (next part)

row,SMILES,% of control remaining [%]
1,O=C(NCCOc1ccccc1Cc1ccccc1)c1cncc(Br)c1 [CBK266581],140.462
2,O=C1NCCN1c1cccc(Cl)c1 [CBK016915],105.156
3,CCN(CC)CCN(Cc1cc2ccc(C)cc2[nH]c1=O)C(=O)Nc1ccc(Cl)cc1 [CBK068680],121.437
4,O=C(CN1CCC(Cc2ccccc2)CC1)Nc1ccc(F)c(Cl)c1 [CBK126387],110.316
5,CCN(CC(=O)N1CCN(C)CC1)S(=O)(=O)c1cc(Cl)ccc1Cl [CBK269297],107.11
6,C#CCOc1cccc2oc(CCC)cc(=O)c12 [CBK005628],100
7,c1ccc(CN2CCN(c3nccnc3OCc3cccnc3)CC2)cc1 [CBK083129T],109.212
8,CCCC/C=C/c1cn2ccnc2c(N2CCOCC2)n1 [CBK038031],150.279
9,CN1CCC2(CCC1=O)CC(N)c1ccccc1O2 (stereo not drawn) [CBK284456],74.8518
10,COc1ccc(Cl)cc1NC(=O)CN(c1ccccc1)S(=O)(=O)c1ccc(Cl)cc1 [CBK265261],116.836
11,O=S1(=O)CCN(CC2COc3ccccc3O2)CC1 (stereo not drawn) [CBK074789],138.814
12,COc1ccccc1N1CCN(c2ccc([N+](=O)[O-])cc2C(=O)O)CC1 [CBK286692],127.801
13,CC(C)c1n[nH]c(=S)n1C1CCc2ccccc21 (stereo not drawn) [CBK288374],119.484
14,CS(=O)(=O)Nc1ccc(C(=O)NCCN2CCOCC2)cc1 [CBK269781],142.47
15,CCOc1ncccc1C(=O)NCc1ccc(COCC(F)(F)F)cc1 [CBK304526],97.7191
16,COc1ccc(NC(=O)c2ccccc2CCc2ccccc2)c([N+](=O)[O-])c1 [CBK268632],109.737
17,Cn1cc(CCNC(=O)N(Cc2ccccn2)CC2CCCO2)cn1 (stereo not drawn) [CBK306973],162.727
18,COc1ccc(NC(=O)CC2SC(=N)NC2=O)c([N+](=O)[O-])c1 (stereo not drawn) [CBK265334],131.996
19,O=C(c1nc2ccccc2s1)C1CCN(C(=O)c2ccco2)CC1 [CBK284234],122.277
20,CN(C)C(=O)c1cc(Br)cnc1NCc1ccc2c(c1)OCO2 [CBK076293],76.4281
21,CCCCNc1cc(N(C)Cc2cnn(C)c2)nc(N)n1 [CBK304167],130.386
22,CCOC(=O)[C@@]12CC=CCN(C(=O)c3ccco3)[C@@H]1CCC2 [CBK284574],108.593
23,COc1cc(CNS(=O)(=O)c2cc3c(NCCN(C)C)nccc3s2)cc(OC)c1OC [CBK038246C],120.367
24,CCN(CC)S(=O)(=O)c1ccc(CNC(=O)Cc2ccc(Cl)cc2)cc1 [CBK306188],91.5819
25,COCC(C)NC(=O)c1nn(-c2nc3ccccc3s2)c2ccccc12 (stereo not drawn) [CBK048488],146.15
26,CCCc1n[nH]c(C2CN(CCn3cccn3)CCO2)n1 (stereo not drawn) [CBK304842],96.9415
